# Data: PubChem BioAssay AID2284378 (EPA ToxCast)
# Inconclusive results, whose numbers are uncertain, are shown with a selection of clear calls. Potencies of inconclusive entries are doubtful fits and often do not repeat. Calls of active or inactive are those of the source. Rule for the calls: active = hit-call score of the fitted dose curve at least 0.9, where 1 is the maximum; inconclusive = response in the unintended direction; inactive = score below 0.9.
# Test system: frog Retinoid X Receptor beta (RXRb), gene 394278
# Assay: ATG_frRXRb_EcoTox2: Attagene TRANS-FACTORIAL EcoTox-2 HepG2 Assay for frog Retinoid X Receptor beta (RXRb)
# Procedure: ATG_EcoTox2 is a cell-based, multiplexed assay created by modifying the existing Attagene TRANS-FACTORIAL system to include a panel of nuclear receptors from some or all the following species: human (Homo sapiens), african clawed frog (Xenopus laevis), rainbow trout (Oncorhynchus mykiss), japanese medaka (Oryzias latipes), and zebrafish (Danio rerio). The ECOTOX2-FACTORIAL format uses HepG2, a human liver cell line, with measurements taken at 24 hours after chemical dosing in a 24-well plate. ATG_frRXRb_EcoTox2 is one of 29 assay components calculated in the ATG_EcoTox2 assay. It is designed to make measurements of mRNA induction, a form of inducible reporter, as detected with fluorescence intensity signals by Reverse transcription polymerase chain reaction (RT-PCR) and Capillary electrophoresis technology.The assay endpoint ATG_frRXRb_EcoTox2 was analyzed in the positive analysis fitting direction relative to DMSO as the negative control and baseline of activity. Using a type of inducible reporter, measures of mRNA for gain-of-signal activity can be used to understand the reporter gene at the transcription factor-level as they relate to the gene RXRb. Furthermore, this assay endpoint can be referred to as a primary readout, because this assay has produced multiple assay endpoints where this one serves a reporter gene function. To generalize the intended target to other relatable targets, this assay endpoint is annotated to the nuclear receptor intended target family, where the subfamily is non-steroidal.
# Human liver HepG2 cells are transiently transfected with multiple reporter transcription units (MRTUs) in 6-well plates using FuGene 6 reagent (Roche; 3 ml FuGene/1 mg DNA). The MRTU constructs are regulated by a cis-regulating element (promoter). Each RTU expresses a GAL4-UAS that regulates the transcription of a nearby target reporter gene sequence. A major difference between the CIS and TRANS system is that in CIS activities of endogenous TFs are measured, whereas the TRANS assay evaluates changes in activities of exogenous, chimeric NR-Gal4 proteins. […] At the end of 24 hour incubation, total RNA was isolated using TriZol reagent (Invitrogen). The isolated RNA is then reverse-transcribed using oligo(dT) primer and Mo-MLV reverse transcriptase (Invitrogen) with DNAse I (Ambion) treatment for 30 min. The one-tenth of the produced cDNA was amplified by PCR using Taq DNA polymerase (Invitrogen) and two reporter sequence-specific primers. The PCR products were fluorescently labeled by primer extension with 6-arboxyfluorescein (6-FAM) 5'-labeled reporter sequence-specific primer (2 min at 95 C, 20 s at 68 C and 10 min at 72 C) and these products were digested with 5U of HpaI (New England Biolabs) for 2h at 37 C. The fragments were purified using Qiaquick PCR columns (Qiagen), analyzed on an ABI 3130xL genetic analyzer (Applied Biosystems) with peak positions identified by using a set of X-rhodamine (ROX)-labeled MapMarker1000 molecular weight standards (BioVentures). The raw capillary electrophoresis data was processed using Attagraph software (Attagene).
Structure (SMILES),AC50,outcome
Cc1cccc(Nc2cc(Cl)nc(SCC(=O)O)n2)c1C,active: 23.8 µM,
C[C@@H]1C[C@H]2[C@@H]3CCC4=CC(=O)C=C[C@]4(C)[C@@]3(F)[C@@H](O)C[C@]2(C)[C@@]1(O)C(=O)COP(=O)(O)O,,inactive
Cc1nc(-c2ccc(C(F)(F)F)cc2)sc1C(=O)NCc1ccc(OC(C)(C)C(=O)O)cc1,inconclusive: 61.5 µM,
CC(C)(Oc1ccc(Cl)cc1)C(=O)O,,inactive
Cc1c(C)c2c(c(C)c1O)CCC(C)(COc1ccc(CC3SC(=O)NC3=O)cc1)O2 (configuration not stated),inconclusive: 9.56 µM,
CC(C)(Oc1ccc(C2CC2(Cl)Cl)cc1)C(=O)O (configuration not stated),inconclusive: 100 µM,
C[C@]12C=CC(=O)C=C1CC[C@@H]1[C@@H]2C(=O)C[C@@]2(C)[C@H]1CC[C@]2(O)C(=O)CO,,inactive

# Reformatted as tab-separated lines: part of the list above.
Structure (SMILES)	AC50	outcome
Cc1cccc(Nc2cc(Cl)nc(SCC(=O)O)n2)c1C	active: 23.8 µM	
CC(C)(Oc1ccc(Cl)cc1)C(=O)O		inactive
